Reference: the supplement of paper PMC11546906
Counter-ions that a name gives are not always drawn. This is one part of the list. Repeats in this data set agree poorly, so a single value says little.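 A screen tested FDA-approved drugs combined with one-eighth-MIC colistin against a clinical mcr-1-positive, multidrug-resistant E. coli isolate, measuring OD600 at 24 h. Controls were untreated bacteria (growth) and broth alone (blank). An OD600 under 0.2 marked a combination as active.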

Tested on: Escherichia coli 42 (mcr-1-positive clinical isolate)
Experiment: OD600 after 24 h growth with compound plus colistin (absorbance units (OD600)); higher = more bacterial growth (less inhibition)
Settings: first compound 25 µM; colistin concentration 0.5 ug/mL; incubation time 24 h; 37 °C

OD600, inactive:
CN(C)CCC=C1c2ccccc2C=Cc2ccccc21 [Cyclobenzaprine hydrochloride] + CCC(C)CCCC(=O)N[C@@H](CCN)C(=O)N[C@H](C(=O)N[C@@H](CCN)C(=O)N[C@H]1CCNC(=O)[C@H]([C@@H](C)O)NC(=O)[C@H](CCN)NC(=O)[C@H](CCN)NC(=O)[C@H](CC(C)C)NC(=O)[C@@H](CC(C)C)NC(=O)[C@H](CCN)NC1=O)[C@@H](C)O [colistin] 0.793
Nc1ccc(S(=O)(=O)c2ccc(N)cc2)cc1 [Dapsone] + CCC(C)CCCC(=O)N[C@@H](CCN)C(=O)N[C@H](C(=O)N[C@@H](CCN)C(=O)N[C@H]1CCNC(=O)[C@H]([C@@H](C)O)NC(=O)[C@H](CCN)NC(=O)[C@H](CCN)NC(=O)[C@H](CC(C)C)NC(=O)[C@@H](CC(C)C)NC(=O)[C@H](CCN)NC1=O)[C@@H](C)O [colistin] 0.906
COCCCC/C(=N\OCCN)c1ccc(C(F)(F)F)cc1 [Fluvoxamine maleate] + CCC(C)CCCC(=O)N[C@@H](CCN)C(=O)N[C@H](C(=O)N[C@@H](CCN)C(=O)N[C@H]1CCNC(=O)[C@H]([C@@H](C)O)NC(=O)[C@H](CCN)NC(=O)[C@H](CCN)NC(=O)[C@H](CC(C)C)NC(=O)[C@@H](CC(C)C)NC(=O)[C@H](CCN)NC1=O)[C@@H](C)O [colistin] 1.05
O=C(c1ccccc1)c1ccc2n1CCC2C(=O)O (centres undefined) [Ketorolac tromethamine salt] + CCC(C)CCCC(=O)N[C@@H](CCN)C(=O)N[C@H](C(=O)N[C@@H](CCN)C(=O)N[C@H]1CCNC(=O)[C@H]([C@@H](C)O)NC(=O)[C@H](CCN)NC(=O)[C@H](CCN)NC(=O)[C@H](CC(C)C)NC(=O)[C@@H](CC(C)C)NC(=O)[C@H](CCN)NC1=O)[C@@H](C)O [colistin] 0.952
CC(=O)OCC(=O)[C@H]1CC[C@H]2[C@@H]3CCC4=CC(=O)CC[C@]4(C)[C@H]3CC[C@]12C [Deoxycorticosterone acetate] + CCC(C)CCCC(=O)N[C@@H](CCN)C(=O)N[C@H](C(=O)N[C@@H](CCN)C(=O)N[C@H]1CCNC(=O)[C@H]([C@@H](C)O)NC(=O)[C@H](CCN)NC(=O)[C@H](CCN)NC(=O)[C@H](CC(C)C)NC(=O)[C@@H](CC(C)C)NC(=O)[C@H](CCN)NC1=O)[C@@H](C)O [colistin] 1.06
c1ccc(CN(CC2=NCCN2)c2ccccc2)cc1 [Antazoline hydrochloride] + CCC(C)CCCC(=O)N[C@@H](CCN)C(=O)N[C@H](C(=O)N[C@@H](CCN)C(=O)N[C@H]1CCNC(=O)[C@H]([C@@H](C)O)NC(=O)[C@H](CCN)NC(=O)[C@H](CCN)NC(=O)[C@H](CC(C)C)NC(=O)[C@@H](CC(C)C)NC(=O)[C@H](CCN)NC1=O)[C@@H](C)O [colistin] 1.14
O=C(O)c1ccc(-n2nc(-c3ccccc3O)nc2-c2ccccc2O)cc1 [Deferasirox] + CCC(C)CCCC(=O)N[C@@H](CCN)C(=O)N[C@H](C(=O)N[C@@H](CCN)C(=O)N[C@H]1CCNC(=O)[C@H]([C@@H](C)O)NC(=O)[C@H](CCN)NC(=O)[C@H](CCN)NC(=O)[C@H](CC(C)C)NC(=O)[C@@H](CC(C)C)NC(=O)[C@H](CCN)NC1=O)[C@@H](C)O [colistin] 1.02
CCN(CC)CCOC(=O)c1ccc(N)cc1 [Procaine hydrochloride] + CCC(C)CCCC(=O)N[C@@H](CCN)C(=O)N[C@H](C(=O)N[C@@H](CCN)C(=O)N[C@H]1CCNC(=O)[C@H]([C@@H](C)O)NC(=O)[C@H](CCN)NC(=O)[C@H](CCN)NC(=O)[C@H](CC(C)C)NC(=O)[C@@H](CC(C)C)NC(=O)[C@H](CCN)NC1=O)[C@@H](C)O [colistin] 0.99
CCn1cc(C(=O)O)c(=O)c2cc(F)c(N3CCNCC3)nc21 [Enoxacin hydrate] + CCC(C)CCCC(=O)N[C@@H](CCN)C(=O)N[C@H](C(=O)N[C@@H](CCN)C(=O)N[C@H]1CCNC(=O)[C@H]([C@@H](C)O)NC(=O)[C@H](CCN)NC(=O)[C@H](CCN)NC(=O)[C@H](CC(C)C)NC(=O)[C@@H](CC(C)C)NC(=O)[C@H](CCN)NC1=O)[C@@H](C)O [colistin] 0.924
OCCOCCN1CCN(C2=Nc3ccccc3Sc3ccccc32)CC1 [Quetiapine] + CCC(C)CCCC(=O)N[C@@H](CCN)C(=O)N[C@H](C(=O)N[C@@H](CCN)C(=O)N[C@H]1CCNC(=O)[C@H]([C@@H](C)O)NC(=O)[C@H](CCN)NC(=O)[C@H](CCN)NC(=O)[C@H](CC(C)C)NC(=O)[C@@H](CC(C)C)NC(=O)[C@H](CCN)NC1=O)[C@@H](C)O [colistin] 1.08
CCC(C)(C)C(=O)O[C@H]1C[C@@H](C)C=C2C=C[C@H](C)[C@H](CC[C@@H]3C[C@@H](O)CC(=O)O3)[C@H]21 [Simvastatin] + CCC(C)CCCC(=O)N[C@@H](CCN)C(=O)N[C@H](C(=O)N[C@@H](CCN)C(=O)N[C@H]1CCNC(=O)[C@H]([C@@H](C)O)NC(=O)[C@H](CCN)NC(=O)[C@H](CCN)NC(=O)[C@H](CC(C)C)NC(=O)[C@@H](CC(C)C)NC(=O)[C@H](CCN)NC1=O)[C@@H](C)O [colistin] 0.779
Cc1cc(/C=C/C#N)cc(C)c1Nc1ccnc(Nc2ccc(C#N)cc2)n1 [Rilpivirine] + CCC(C)CCCC(=O)N[C@@H](CCN)C(=O)N[C@H](C(=O)N[C@@H](CCN)C(=O)N[C@H]1CCNC(=O)[C@H]([C@@H](C)O)NC(=O)[C@H](CCN)NC(=O)[C@H](CCN)NC(=O)[C@H](CC(C)C)NC(=O)[C@@H](CC(C)C)NC(=O)[C@H](CCN)NC1=O)[C@@H](C)O [colistin] 1.03
CCC(=O)OCC(=O)[C@@]1(OC(=O)CC)[C@@H](C)C[C@H]2[C@@H]3CCC4=CC(=O)C=C[C@]4(C)[C@@]3(Cl)[C@@H](O)C[C@@]21C [Beclometasone dipropionate] + CCC(C)CCCC(=O)N[C@@H](CCN)C(=O)N[C@H](C(=O)N[C@@H](CCN)C(=O)N[C@H]1CCNC(=O)[C@H]([C@@H](C)O)NC(=O)[C@H](CCN)NC(=O)[C@H](CCN)NC(=O)[C@H](CC(C)C)NC(=O)[C@@H](CC(C)C)NC(=O)[C@H](CCN)NC1=O)[C@@H](C)O [colistin] 1.11
Nc1ccn([C@H]2CC[C@@H](CO)O2)c(=O)n1 [Zalcitabine] + CCC(C)CCCC(=O)N[C@@H](CCN)C(=O)N[C@H](C(=O)N[C@@H](CCN)C(=O)N[C@H]1CCNC(=O)[C@H]([C@@H](C)O)NC(=O)[C@H](CCN)NC(=O)[C@H](CCN)NC(=O)[C@H](CC(C)C)NC(=O)[C@@H](CC(C)C)NC(=O)[C@H](CCN)NC1=O)[C@@H](C)O [colistin] 1.17
Cc1c(OCC(F)(F)F)ccnc1C[S+]([O-])c1nc2ccccc2[nH]1 (centres undefined) [Lansoprazole] + CCC(C)CCCC(=O)N[C@@H](CCN)C(=O)N[C@H](C(=O)N[C@@H](CCN)C(=O)N[C@H]1CCNC(=O)[C@H]([C@@H](C)O)NC(=O)[C@H](CCN)NC(=O)[C@H](CCN)NC(=O)[C@H](CC(C)C)NC(=O)[C@@H](CC(C)C)NC(=O)[C@H](CCN)NC1=O)[C@@H](C)O [colistin] 1.17
O=C(N[C@H](CO)[C@H](O)c1ccc([N+](=O)[O-])cc1)C(Cl)Cl [Chloramphenicol] + CCC(C)CCCC(=O)N[C@@H](CCN)C(=O)N[C@H](C(=O)N[C@@H](CCN)C(=O)N[C@H]1CCNC(=O)[C@H]([C@@H](C)O)NC(=O)[C@H](CCN)NC(=O)[C@H](CCN)NC(=O)[C@H](CC(C)C)NC(=O)[C@@H](CC(C)C)NC(=O)[C@H](CCN)NC1=O)[C@@H](C)O [colistin] 0.849
Nc1ccc(C(=O)O)c(O)c1 [4-Aminosalicylic acid] + CCC(C)CCCC(=O)N[C@@H](CCN)C(=O)N[C@H](C(=O)N[C@@H](CCN)C(=O)N[C@H]1CCNC(=O)[C@H]([C@@H](C)O)NC(=O)[C@H](CCN)NC(=O)[C@H](CCN)NC(=O)[C@H](CC(C)C)NC(=O)[C@@H](CC(C)C)NC(=O)[C@H](CCN)NC1=O)[C@@H](C)O [colistin] 0.87
NC(=O)N[C@@H](CCC(=O)O)C(=O)O [Carglumic Acid] + CCC(C)CCCC(=O)N[C@@H](CCN)C(=O)N[C@H](C(=O)N[C@@H](CCN)C(=O)N[C@H]1CCNC(=O)[C@H]([C@@H](C)O)NC(=O)[C@H](CCN)NC(=O)[C@H](CCN)NC(=O)[C@H](CC(C)C)NC(=O)[C@@H](CC(C)C)NC(=O)[C@H](CCN)NC1=O)[C@@H](C)O [colistin] 0.997
C[C@@H](c1nc(-c2ccc(C#N)cc2)cs1)[C@](O)(Cn1cncn1)c1cc(F)ccc1F [Isavuconazole] + CCC(C)CCCC(=O)N[C@@H](CCN)C(=O)N[C@H](C(=O)N[C@@H](CCN)C(=O)N[C@H]1CCNC(=O)[C@H]([C@@H](C)O)NC(=O)[C@H](CCN)NC(=O)[C@H](CCN)NC(=O)[C@H](CC(C)C)NC(=O)[C@@H](CC(C)C)NC(=O)[C@H](CCN)NC1=O)[C@@H](C)O [colistin] 0.935

Taken from the results shown for reference:
OD600, inactive:
CCC(=O)OCC(=O)[C@@]1(OC(=O)CC)[C@@H](C)C[C@H]2[C@@H]3CCC4=CC(=O)C=C[C@]4(C)[C@@]3(Cl)[C@@H](O)C[C@@]21C [Beclometasone dipropionate] + CCC(C)CCCC(=O)N[C@@H](CCN)C(=O)N[C@H](C(=O)N[C@@H](CCN)C(=O)N[C@H]1CCNC(=O)[C@H]([C@@H](C)O)NC(=O)[C@H](CCN)NC(=O)[C@H](CCN)NC(=O)[C@H](CC(C)C)NC(=O)[C@@H](CC(C)C)NC(=O)[C@H](CCN)NC1=O)[C@@H](C)O [colistin] 1.11
Nc1ccn([C@H]2CC[C@@H](CO)O2)c(=O)n1 [Zalcitabine] + CCC(C)CCCC(=O)N[C@@H](CCN)C(=O)N[C@H](C(=O)N[C@@H](CCN)C(=O)N[C@H]1CCNC(=O)[C@H]([C@@H](C)O)NC(=O)[C@H](CCN)NC(=O)[C@H](CCN)NC(=O)[C@H](CC(C)C)NC(=O)[C@@H](CC(C)C)NC(=O)[C@H](CCN)NC1=O)[C@@H](C)O [colistin] 1.17
